# Test results published in the supplement of paper PMC7580552.
# Where a name gives a salt, the structure may show the parent alone. ± gives the standard deviation of the averaged measurements. The list shows a part of the results. Part of the spread comes from offsets between plates or batches.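 Biofilm, quantified by the absorbance of well-retained crystal violet, is assayed using the K-12 laboratory model grown unshaken in 96-well plates. Candidate specific biofilm inhibitors were drugs that sharply lowered staining yet reduced free-floating growth by less than 70%.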
# System: Escherichia coli W3110
# Experiment: biofilm formation (crystal violet staining) relative to untreated control; higher = more biofilm
# Conditions: 10 µM; 20-24 h; 30 °C; TB
row,SMILES,biofilm formation [%]
1,CC(C)(C)NC[C@H](O)COc1cccc2c1CCCC2=O [(-) -Levobunolol hydrochloride],87
2,Nc1ncn(C2OC(CO)C(O)C2O)c(=O)n1 (configuration not stated) [Azacytidine-5],68
3,O=C(O)CCC(=O)c1ccc(-c2ccccc2)cc1 [Fenbufen],67
4,CN1CCN2c3ccccc3Cc3ccccc3C2C1 (configuration not stated) [Mianserine hydrochloride],61
5,N[C@@H](Cc1ccc(O)c(O)c1)C(=O)O [Levodopa],67
6,CCCCc1ncc(/C=C(\Cc2cccs2)C(=O)O)n1Cc1ccc(C(=O)O)cc1 [Eprosartan mesylate],79
7,"O=C1c2cccc(O)c2C(=O)c2c(O)cccc21 [1,8-Dihydroxyanthraquinone]",75
8,CC(C)NNC(=O)c1ccncc1 [Iproniazide phosphate],55
9,CCN(CC)CCNC(=O)c1cc(Br)c(N)cc1OC [Bromopride],83
10,CCCCC(=O)N(Cc1ccc(-c2ccccc2-c2nnn[nH]2)cc1)[C@H](C(=O)O)C(C)C [Valsartan],115
11,OC(CCN1CCCCC1)(c1ccccc1)c1ccccc1 [Pridinol methanesulfonate salt],94
12,CCC[C@@H]1C[C@@H](C(=O)N[C@@H]([C@H]2O[C@H](SC)[C@H](O)[C@@H](O)[C@H]2O)[C@@H](C)O)N(C)C1 [Lincomycin hydrochloride],77
13,CCN(CC)CCN[C@@H](C(=O)OCCC(C)C)c1ccccc1 [Camylofine chlorhydrate],73
14,CN1CCCN=C1/C=C/c1cccs1 [Pyrantel tartrate],83
15,C#C[C@]1(O)CC[C@H]2[C@@H]3CCC4=Cc5oncc5C[C@]4(C)[C@H]3CC[C@@]21C [Danazol],46
16,O=C(Nc1ccc([N+](=O)[O-])cc1Cl)c1cc(Cl)ccc1O [Niclosamide],72
17,CCOc1ccc(Cc2nccc3cc(OCC)c(OCC)cc23)cc1OCC [Ethaverine hydrochloride],85
18,CC12CC3CC(C)(C1)CC(N)(C3)C2 [Memantine Hydrochloride],78
19,CCN1CCCC1CNC(=O)c1cc(S(N)(=O)=O)ccc1OC (configuration not stated) [Sulpiride],62
20,COc1ccc(-c2ccc3cc(C(=O)O)ccc3c2)cc1C12CC3CC(CC(C3)C1)C2 [Adapalene],44
21,O=C(O)c1cccnc1 [Niacin],72

row,SMILES,biofilm formation [%]
1,CCCCc1oc2ccccc2c1C(=O)c1cc(I)c(OCCN(CC)CC)c(I)c1 [Amiodarone hydrochloride],77
2,O=c1[nH]c(=O)n([C@H]2C[C@H](O)[C@@H](CO)O2)cc1I [Idoxuridine],74
3,Cc1cccc(N(C)C(=S)Oc2ccc3ccccc3c2)c1 [Tolnaftate],85
4,CC1(C)O[C@@H]2C[C@H]3[C@@H]4C[C@H](F)C5=CC(=O)CC[C@]5(C)[C@H]4[C@@H](O)C[C@]3(C)[C@]2(C(=O)CO)O1 [Flurandrenolide],69
5,NNC(=O)c1ccncc1 [Isoniazid],83
6,CC[C@H](c1ccc(O)cc1)[C@@H](CC)c1ccc(O)cc1 [Hexestrol],61
7,Cc1c(Nc2ncccc2C(=O)O)cccc1C(F)(F)F [Flunixin meglumine],86
8,C[C@H](CS)C(=O)N1CCC[C@H]1C(=O)O [Captopril],74
9,CN(Cc1cc(Br)cc(Br)c1N)C1CCCCC1 [Bromhexine hydrochloride],86
10,CC1(C)O[C@@H]2C[C@H]3[C@@H]4C[C@H](F)C5=CC(=O)C=C[C@]5(C)[C@H]4[C@@H](O)C[C@]3(C)[C@]2(C(=O)CO)O1 [Flunisolide],83.5 ± 6.4
11,NCCc1ccc(O)c(O)c1 [Dopamine hydrochloride],85
12,CC(C)C(=O)c1c(C(C)C)nn2ccccc12 [Ibudilast],93
13,CC(C)NCC(O)COc1cccc2[nH]ccc12 (configuration not stated) [Pindolol],72
14,OC(CCN1CCCC1)(c1ccccc1)C1CCCCC1 (configuration not stated) [Procyclidine hydrochloride],62
15,CC(CN(C)C)CN1c2ccccc2CCc2ccccc21 (configuration not stated) [Trimipramine maleate salt],65
16,CCCCOc1ccc(C(=O)CCN2CCCCC2)cc1 [Dyclonine hydrochloride],68
17,Cn1nnc2c(C(N)=O)ncn2c1=O [Temozolomide],76
18,"CN1[C@@H]2CC[C@H]1C[C@@H](OC(=O)C(O)c1ccccc1)C2 (mixture of isomers) [Homatropine hydrobromide (R,S)]",76
19,CC(C)(C)CC(C)(C)c1ccc(OCCOCC[N+](C)(C)Cc2ccccc2)cc1 [Benzethonium chloride],49
20,CC(C)(C)NC(=O)[C@H]1CC[C@H]2[C@@H]3CC[C@H]4NC(=O)C=C[C@]4(C)[C@H]3CC[C@]12C [Finasteride],79
21,Nc1nc(N)c2nc(-c3ccccc3)c(N)nc2n1 [Triamterene],71

# Looked up by structure from the entries so far:
row,SMILES,biofilm formation [%]
6,CCCCc1ncc(/C=C(\Cc2cccs2)C(=O)O)n1Cc1ccc(C(=O)O)cc1 [Eprosartan mesylate],79
2,Nc1ncn(C2OC(CO)C(O)C2O)c(=O)n1 (configuration not stated) [Azacytidine-5],68
